Results: PubChem BioAssay AID2685 (National Center for Advancing Translational Sciences (NCATS), 2010)
The list shows a part of the results. Shown are side measurements of this screen, not its main read-out; they come without a call. Most of these compounds were active or inconclusive in the main read-out, so they are no random draw. Potencies come from curve fits of mixed quality, noted in brackets.

Test: qHTS Assay for Lipid Storage Modulators in Drosophila S3 Cells;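 as to cell number change: cells counted by Cell Tracker Red CMTPX staining in the red channel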
Conditions: BODIPY lipid droplet fluorescence, 18-24 h; for cell number change: measured here: cell count max response, cells fed with added oleic acid
Summary of the method: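 Drosophila S3 cells got compounds at several concentrations plus oleic acid (400 uM solution). Laser-scanning cytometry with 488 nm excitation read lipid droplets at 500-530 nm and cells at 575-640 nm. Percent activity was relative to 20 uM Triacsin C.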

[1] = measured here: cell number channel AC50, cells fed with added oleic acid
[2] = measured here: lipid fluorescence (Fed channel) AC50, cells fed with added oleic acid

| Compound | cell number change | AC50 [1] | AC50 [2] |
| --- | --- | --- | --- |
| O=C(Cc1ccc([N+](=O)[O-])cc1)Nc1ccon1 | 13.4% | 1.3 µM [rising, partial curve] | 0.58 µM [falling, single point] |
| O=C(O)CCN1C(=O)/C(=C\c2ccc(OCc3ccccc3)c(OCc3ccccc3)c2)SC1=S | -31.4% | 7.31 µM [falling, partial curve, poor fit] |  |
| CC1(C)CC(=O)/C(=C(\O)CCCN2C(=O)c3ccccc3C2=O)C(=NCCO)C1 | 5.02% |  |  |
| CN(c1cccc(NC(=O)CN(c2ccc(Cl)c(Cl)c2)S(=O)(=O)c2ccccc2)c1)S(C)(=O)=O | -19.2% |  | 18.4 µM [falling, single point] |
| CN(Cc1ncc[nH]1)C(=O)CC1C(=O)NCCN1Cc1c(F)cccc1Cl (stereo not given) | 19.8% |  | 1.3 µM [rising, full curve, poor fit] |
| Cn1c(=O)c2[nH]c(N3CCN(c4ccccn4)CC3)nc2n(C)c1=O | -0.678% |  | 6.51 µM [falling, single point] |
| Cc1ccccc1Nc1nc(-c2sc(NC(=O)c3ccc([N+](=O)[O-])cc3)nc2C)cs1 | -29.4% |  | 16.4 µM [falling, partial curve] |
| COc1ccc(Cl)cc1NC(=O)C(=O)N/N=C/c1cc(C)n(-c2ccc(C)cc2)c1C | 12.9% |  |  |
| O=C(NCC1CCCO1)c1ccc(Br)c(S(=O)(=O)N2CCOCC2)c1 (stereo not given) | 4.04% |  |  |
| CN(Cc1ccccc1)C(=O)COC(=O)c1cc(Cl)nc(Cl)c1 | -5.28% |  | 0.146 µM [falling, full curve, poor fit] |
| CC1(c2ccc(OC(F)F)cc2)NC(=O)N(CC(=O)N2c3ccccc3NC(=O)C2(C)C)C1=O (stereo not given) | -5.69% |  |  |
| COc1ccc(-c2nnc(SCc3cccc(C#N)c3)o2)cc1 | 14.7% |  | 18.4 µM [rising, single point] |
| O=C(COc1ccc(F)cc1)NN1C(=O)CSC1=S | -62.8% | 1.64 µM [falling, partial curve] | 23.1 µM [falling, single point] |
| COc1ccc(NC(=O)CN(C)CC(=O)NCCc2ccc(F)cc2)cc1 | -2.5% |  |  |
| CCOc1ccc(C(=O)NCC(=O)NCC(c2ccc(OC)cc2)N2CCOCC2)cc1OCC (stereo not given) | 18.5% |  |  |
| CCOC(=O)CCCNC(=O)COC(=O)/C=C/c1ccc2c(c1)OCO2 | -2.22% |  |  |
| COc1ccc(OC)c(N=C2SCCCN2C(=O)c2ccc(N3C(=O)CCC3=O)cc2)c1 | -10.4% | 3.26 µM [falling, single point] | 0.058 µM [falling, full curve, poor fit] |
| CCC(=O)Nc1ccc(S(=O)(=O)Nc2cc(C)on2)cc1 | -38.2% | 29.1 µM [falling, single point] | 6.51 µM [falling, partial curve] |
| O=C(c1ccncc1)N(c1ccc2oc3c(c2c1)CCCC3)S(=O)(=O)c1ccc(F)cc1 | 34.8% | 11.6 µM [rising, partial curve] | 11.6 µM [rising, partial curve] |
| CCN(CC(=O)Nc1ccccc1C(F)(F)F)C(=O)c1cc(S(=O)(=O)N2CCCCCC2)ccc1OC | -75% | 29.1 µM [falling, partial curve, poor fit] | 8.2 µM [falling, partial curve] |
| CCOc1ccc(S(=O)(=O)N2CCCC(C(=O)N3CCC(C(N)=O)CC3)C2)cc1Cl (stereo not given) | 14.5% |  | 6.31 µM [rising, single point] |

| Compound | cell number change | AC50 [1] | AC50 [2] |
| --- | --- | --- | --- |
| CN(CC(=O)Nc1ccc(F)c(F)c1F)C(=O)C1=COCCO1 | -10.4% |  |  |
| CN(CC(=O)Nc1ccc(Cl)cc1)C(=O)c1ccc(N2CCCC2=O)cc1 | 13.7% |  | 29.1 µM [rising, single point] |
| Cc1cc(OCC(=O)N(C)Cc2ccccc2)cc(C)c1Cl | -34.9% | 16.4 µM [falling, single point] |  |
| c1ccc(-c2nc3nonc3nc2-c2ccccc2)cc1 | -8.47% |  | 18.4 µM [falling, single point] |
| O=C(Nc1ccc(C(=O)N2CCCCC2)cc1)c1cccs1 | 5.41% |  |  |
| C=CCNCC(=O)Nc1sc2c(c1C(=O)Nc1ccc(OC)cc1OC)CCC2 | 133% |  | 0.651 µM [rising, single point] |
| Cc1cc(O)c2c(CN3CCN(Cc4ccccc4)CC3)cc(=O)oc2c1 | 77.5% | 16.4 µM [rising, partial curve] | 29.1 µM [rising, single point] |
| COc1ccc(S(=O)(=O)N2CCCCC2)cc1NC(=S)Nc1cccc(Cl)c1C |  |  | 0.651 µM [rising, full curve, poor fit] |
| COc1cccc(NC(=O)CN2CCCCCC2)c1 | -4.4% |  | 0.731 µM [rising, single point] |
| CCCc1cc(N2CCCC(C(=O)Nc3c(OC)cccc3OC)C2)n2ncnc2n1 (stereo not given) | 9.72% |  | 0.461 µM [falling, partial curve, poor fit] |
| Cn1c(N)c(C(=O)CSc2nnc(-c3cccs3)n2C2CC2)c(=O)[nH]c1=O | 12% |  |  |
| CCOc1ccc(Nc2nc(Cl)nc(NCCO)n2)cc1 | 15.1% |  | 1.16 µM [falling, single point] |
| Nc1c(C(=O)N2CCCC2)sc2nc(-c3ccccc3)ccc12 | -25% |  | 16.4 µM [falling, single point] |
| COc1cccc(C(=O)NNC(=O)c2ccccc2-n2cccc2)c1 | -12.9% |  |  |
| Cc1cc(C)cc(OCc2ccc(C(=O)NN)o2)c1 | 12.5% |  | 1.16 µM [rising, full curve, poor fit] |
| Cn1nc(C(=O)NCc2ccc(F)cc2)c2ccccc2c1=O | -0.845% |  | 0.326 µM [rising, full curve, poor fit] |
| O=C(N/N=C/c1ccc(O)c2ccccc12)c1cccnc1 | -7.66% |  |  |
| Cc1ccc(NC(=O)CN(C)S(=O)(=O)c2cnc[nH]2)c(C)c1 | -12.4% |  | 14.6 µM [falling, single point] |
| Cc1ccc(CCNC(=O)CCn2ccc3cc(S(=O)(=O)N4CCCC4)ccc32)cc1 | 21.2% |  |  |
| Nc1ccc(NC(=S)Nc2ccccc2)cc1 | 10.6% |  | 6.51 µM [falling, single point] |
| CCOC(=O)c1cccc(NC(=O)CSc2nc3ccccc3c(=O)n2CCOC)c1 | -44.4% | 29.1 µM [falling, single point] | 23.1 µM [falling, single point] |

| Compound | cell number change | AC50 [1] | AC50 [2] |
| --- | --- | --- | --- |
| CCc1noc(C)c1C(=O)Nc1ccc(C(F)(F)F)cc1 | 19.6% |  | 29.1 µM [rising, single point] |
| CC(=O)Nc1ccc(N=Cc2nc(-c3ccc(C)cc3)oc2O)cc1 |  |  | 0.58 µM [rising, single point] |
| NS(=O)(=O)c1ccc(CNC(=O)Cc2cccs2)cc1 | 10.6% |  | 6.51 µM [rising, single point] |
| CCc1cc(C(=O)N2CCN(c3ncc(C(F)(F)F)cc3Cl)CC2)sc1C | 48.7% | 20.6 µM [rising, single point] |  |
| CCOc1ccc(C(=O)COC(=O)C2CCN(c3ccc(C(F)(F)F)cn3)CC2)cc1 | 5.16% | 0.411 µM [falling, full curve] | 0.461 µM [falling, full curve] |
| Cc1ccc(OC(=O)c2ccc(C)c([N+](=O)[O-])c2)cn1 | 26.2% |  |  |
| O=C(N/N=C/c1ccc([N+](=O)[O-])o1)c1ccc(O)cc1 | -58.7% | 20.6 µM [falling, single point] | 18.4 µM [falling, single point] |
| CCCn1c(SCC(=O)N2CCc3ccccc32)nnc1-c1ccncc1 | -3.73% | 0.0058 µM [falling, full curve, poor fit] |  |
| O=C(COC(=O)CN1C(=O)C2CCCCC2C1=O)Nc1cc(S(=O)(=O)N2CCOCC2)ccc1Cl (stereo not given) | -0.59% |  | 4.11 µM [falling, full curve] |
| Cn1nc(-c2ccc(Cl)cc2)nc2c(=O)n(C)c(=O)nc1-2 | -70.8% | 11.6 µM [falling, partial curve] | 10.3 µM [falling, partial curve] |
| COc1ccc(C2(C)NC(=O)N(CC(=O)c3ccc4c(c3)OCO4)C2=O)cc1 (stereo not given) | 10.4% |  |  |
| COc1ccc(-c2nc3ccc(C(=O)NCCCN4CCOCC4)cc3nc2-c2ccc(OC)cc2)cc1 | 10.1% |  | 2.59 µM [falling, full curve, poor fit] |
| Cc1cc(C(=O)OC(C)C(=O)Nc2nc(-c3ccccc3)cs2)c(C)o1 (stereo not given) | -36.9% | 32.6 µM [falling, partial curve, poor fit] | 0.0651 µM [falling, full curve, poor fit] |
| C/C(=N/Nc1ccc([N+](=O)[O-])cc1)c1c[nH]c2ccccc12 |  |  | 9.2 µM [falling, single point] |
| CC(=O)Nc1nc(C(=O)O)cs1 | -36.8% | 32.6 µM [falling, single point] |  |
| Cc1sc2c(c1C)c(=O)n(-c1ccc(F)cc1)c(=O)n2CC(=O)NCc1ccco1 | 26.7% |  | 29.1 µM [rising, single point] |
| CC(CCc1ccccc1)NC(=O)CCNC(=O)Cn1ccc2ccccc2c1=O (stereo not given) | 51.8% | 32.6 µM [rising, single point] |  |
| COc1ccc(C(=O)N2CC(=O)N(CCc3ccccc3)C(=O)C2)cc1OC | 27% |  | 8.2 µM [rising, partial curve] |
| COc1ccccc1Oc1ccc(N/C=C2/CCCC2=O)cc1 |  |  | 6.51 µM [rising, single point] |

Shown as tab-separated lines: part of the list above
Compound	cell number change	AC50 [1]	AC50 [2]
CC1(c2ccc(OC(F)F)cc2)NC(=O)N(CC(=O)N2c3ccccc3NC(=O)C2(C)C)C1=O (stereo not given)	-5.69%		
Cc1cc(C)cc(OCc2ccc(C(=O)NN)o2)c1	12.5%		1.16 µM [rising, full curve, poor fit]
CC(=O)Nc1ccc(N=Cc2nc(-c3ccc(C)cc3)oc2O)cc1			0.58 µM [rising, single point]
Cc1ccc(OC(=O)c2ccc(C)c([N+](=O)[O-])c2)cn1	26.2%		
